PubChem BioAssay AID743454 | Peter MacCallum Cancer Centre – 2014

Screen: 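Search for knock-downs that restore vorinostat killing in resistant colon cancer cells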 (primary screen)
Cells: human HCT116-VR colon cancer cells, selected for vorinostat resistance
Reagent: siRNA pool against human genes, 40 nM siRNA pool
Timing: vorinostat for 24 h, read-out about 72 h after transfection
Challenge: vorinostat at 2.5 µM final
Read-out: 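Cell viability by CellTiter-Fluor and caspase 3/7 activity by luminescence, each scaled to mock wells per plate, duplicates averaged, then robust z-scored over all plates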
Direction: viability robust z-score: higher = more viable cells than screen typical; caspase robust z-score: higher = more caspase 3/7 activity than screen typical
Call rule: 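a knock-down is a hit when classed RV1 or RV2 for lowered viability, or CA1 or CA2 for caspase activation; those lethal without drug were dropped; hits were retested singly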
In all, the deposit lists about 18,000 reagents; shown is an unselected part. 450 of them (2.5%) were called active. 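Single biological run; no consistent viability z cut-off exists, so the class columns, not z-scores, define the calls.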

| target | viability hit class | caspase hit class | viability robust z-score | caspase robust z-score | call |
| --- | --- | --- | --- | --- | --- |
| MPP3 (MAGUK p55 scaffold protein 3) | no change | no change | -0.93 | 3.72 | inactive |
| NR2E3 (nuclear receptor subfamily 2 group E member 3) | no change | no change | 0.58 | -0.36 | inactive |
| NOL9 (nucleolar protein 9) | no change | no change | -2.33 | -0.22 | inactive |
| SCO1 (synthesis of cytochrome C oxidase 1) | no change | no change | 1.17 | 0.73 | inactive |
| SLC26A7 | no change | no change | 0.94 | -1.01 | inactive |
| SMYD1 (SET and MYND domain containing 1) | no change | no change | -0.84 | -0.18 | inactive |
| CEP95 (centrosomal protein 95) | no change | no change | -0.14 | 1.5 | inactive |
| DGCR2 (DiGeorge syndrome critical region gene 2) | no change | no change | -1.1 | 0.72 | inactive |
| H2AC21 (H2A clustered histone 21) | no change | no change | 1.18 | 1.62 | inactive |
| FAM110D (family with sequence similarity 110 member D) | no change | no change | 0.02 | -0.24 | inactive |
| IARS2 (isoleucyl-tRNA synthetase 2, mitochondrial) | no change | no change | 0.78 | -0.6 | inactive |
| SMARCAL1 (SNF2 related chromatin remodeling annealing helicase 1) | no change | no change | -0.66 | -0.88 | inactive |
| GSTZ1 (glutathione S-transferase zeta 1) | no change | no change | 0.16 | -0.49 | inactive |
| UBR4 (ubiquitin protein ligase E3 component n-recognin 4) | no change | no change | -1.64 | 1.03 | inactive |
| EGFL7 (EGF like domain multiple 7) | no change | no change | -0.64 | 1.58 | inactive |
| PRAMEF4 (PRAME family member 4) | no change | no change | -0.6 | 2.39 | inactive |
| SCG5 (secretogranin V) | no change | no change | 1.22 | -0.12 | inactive |
| SPEN (spen family transcriptional repressor) | no change | no change | -1.71 | 2.22 | inactive |
| DDX60 (DExD/H-box helicase 60) | no change | no change | 1.05 | -0.46 | inactive |
| SNTG2 (syntrophin gamma 2) | no change | no change | -1.89 | 0.24 | inactive |
| OR2T6 (olfactory receptor family 2 subfamily T member 6) | no change | no change | 0.99 | -0.28 | inactive |
| ZNF296 (zinc finger protein 296) | no change | no change | 0.72 | -1.17 | inactive |
| HPX (hemopexin) | no change | no change | 0.51 | 0.16 | inactive |
| CLVS1 (clavesin 1) | no change | no change | -0.57 | -1.03 | inactive |
| METTL17 (methyltransferase like 17) | no change | no change | 1.5 | -0.69 | inactive |
| ZNF137P (zinc finger protein 137, pseudogene) | no change | no change | 0.5 | -0.29 | inactive |
| RAB6D (RAB6D, member RAS oncogene family) | no change | no change | 0.02 | -0.4 | inactive |
| C4orf46 (chromosome 4 open reading frame 46) | no change | no change | 0.62 | 2.67 | inactive |
| LYPD6 (LY6/PLAUR domain containing 6) | no change | no change | 0.62 | -0.73 | inactive |
| FOXE1 (forkhead box E1) | no change | no change | 0.87 | 0.95 | inactive |
| CNOT3 (CCR4-NOT transcription complex subunit 3) | no change | CA2 (caspase activation) | 0.21 | 6.2 | active |
| RPS28 (ribosomal protein S28) | RV2 (reduced viability) | no change | -3.71 | -1.66 | active |
| MINPP1 (multiple inositol-polyphosphate phosphatase 1) | no change | no change | -0.8 | -0.18 | inactive |
| TMED1 (transmembrane p24 trafficking protein 1) | no change | no change | -0.05 | -0.72 | inactive |
| P2RY13 (purinergic receptor P2Y13) | no change | no change | 0.25 | -0.8 | inactive |
| H3C2 (H3 clustered histone 2) | no change | no change | 0.49 | -0.91 | inactive |
| LRRC37A (leucine rich repeat containing 37A) | no change | no change | -0.53 | -0.92 | inactive |
| PLD2 (phospholipase D2) | no change | no change | 0.28 | -0.41 | inactive |
| ZNF664 (zinc finger protein 664) | no change | no change | 0.66 | 0.1 | inactive |
| SETD7 (SET domain containing 7, histone lysine methyltransferase) | no change | no change | 1.12 | 0.12 | inactive |
| XRN1 (5'-3' exoribonuclease 1) | no change | no change | 1.12 | -0.36 | inactive |
| POLR3K (RNA polymerase III subunit K) | no change | no change | -1.34 | 1.49 | inactive |
| NLGN3 (neuroligin 3) | no change | no change | -0.32 | -1.13 | inactive |
| UNC50 (unc-50 inner nuclear membrane RNA binding protein) | no change | no change | 0.58 | -1.08 | inactive |
| DGKB (diacylglycerol kinase beta) | no change | no change | -0.96 | -1.19 | inactive |
| OR2T1 (olfactory receptor family 2 subfamily T member 1) | no change | no change | 1.15 | -0.63 | inactive |
| BEND3 (BEN domain containing 3) | no change | no change | -0.88 | 1.46 | inactive |
| ZNF385C (zinc finger protein 385C) | no change | no change | 0.66 | 0.22 | inactive |
| HYAL4 (hyaluronidase 4) | no change | no change | -3.13 | 0.96 | inactive |
| EAF1 (ELL associated factor 1) | no change | no change | -1.43 | 1.09 | inactive |
| CORO1A (coronin 1A) | no change | no change | 0.14 | -0.92 | inactive |
| MIEN1 (migration and invasion enhancer 1) | no change | no change | -0.49 | 0.94 | inactive |
| CNOT7 (CCR4-NOT transcription complex subunit 7) | no change | no change | 0.36 | -0.36 | inactive |
| NUP43 (nucleoporin 43) | no change | no change | 0 | 0.06 | inactive |
| MYADM (myeloid associated differentiation marker) | no change | no change | -0.08 | -0.73 | inactive |
| ELAVL3 (ELAV like RNA binding protein 3) | no change | no change | -4.67 | 2.42 | inactive |
| ATP8B4 (ATPase phospholipid transporting 8B4 (putative)) | no change | no change | -1.05 | -0.26 | inactive |

Records above whose gene name starts with D or d:
| target | viability hit class | caspase hit class | viability robust z-score | caspase robust z-score | call |
| --- | --- | --- | --- | --- | --- |
| DGCR2 (DiGeorge syndrome critical region gene 2) | no change | no change | -1.1 | 0.72 | inactive |
| DDX60 (DExD/H-box helicase 60) | no change | no change | 1.05 | -0.46 | inactive |
| DGKB (diacylglycerol kinase beta) | no change | no change | -0.96 | -1.19 | inactive |
